PMC9074275
No constants are given. Whether binding was seen depends on the method and setting. In cells and extracts the contact can be indirect. Some entries that bind do so weakly or less than the wild type. Where a sequence is shown, tags or fusion partners need not be part of it.

Sequences of proteins named here, by UniProt entry; tags and fusion partners are left off. A change or cut given only in a name is not applied to a line headed by its entry.
UniProt P05556: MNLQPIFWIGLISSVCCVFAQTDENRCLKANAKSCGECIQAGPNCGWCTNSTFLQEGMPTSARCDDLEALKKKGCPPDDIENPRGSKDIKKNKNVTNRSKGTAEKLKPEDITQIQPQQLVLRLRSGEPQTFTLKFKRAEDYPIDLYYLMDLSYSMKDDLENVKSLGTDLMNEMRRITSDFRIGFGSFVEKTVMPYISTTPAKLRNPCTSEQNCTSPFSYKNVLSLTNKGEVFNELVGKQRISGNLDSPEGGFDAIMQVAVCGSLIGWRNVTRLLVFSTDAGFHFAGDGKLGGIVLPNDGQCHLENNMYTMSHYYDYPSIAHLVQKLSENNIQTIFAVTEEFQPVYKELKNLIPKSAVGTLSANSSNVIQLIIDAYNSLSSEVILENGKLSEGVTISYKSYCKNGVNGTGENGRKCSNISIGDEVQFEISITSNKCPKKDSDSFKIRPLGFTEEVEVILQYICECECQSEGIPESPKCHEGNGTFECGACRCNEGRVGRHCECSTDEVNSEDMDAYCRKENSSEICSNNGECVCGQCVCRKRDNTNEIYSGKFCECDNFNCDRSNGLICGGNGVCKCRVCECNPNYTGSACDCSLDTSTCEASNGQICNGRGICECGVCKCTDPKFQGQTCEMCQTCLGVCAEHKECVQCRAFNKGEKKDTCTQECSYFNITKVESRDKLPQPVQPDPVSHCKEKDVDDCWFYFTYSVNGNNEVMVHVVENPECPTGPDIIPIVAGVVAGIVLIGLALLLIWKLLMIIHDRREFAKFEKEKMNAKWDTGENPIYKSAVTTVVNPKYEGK

Target: T1, FLAG-tagged Tspan7 (Tetraspanin-7) (human) (UniProt P41732)
T1 sequence: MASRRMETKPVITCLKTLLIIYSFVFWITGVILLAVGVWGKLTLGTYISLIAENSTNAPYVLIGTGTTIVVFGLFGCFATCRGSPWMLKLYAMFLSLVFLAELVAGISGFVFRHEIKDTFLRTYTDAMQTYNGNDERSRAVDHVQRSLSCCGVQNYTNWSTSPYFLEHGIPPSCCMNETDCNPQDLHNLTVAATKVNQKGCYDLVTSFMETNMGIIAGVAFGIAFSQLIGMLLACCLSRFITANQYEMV
Experiment: co-IP; Anti-Flag M2 agarose beads on RIPA lysates of U2OS cells expressing FLAG-tagged Tspan7 or control constructs; precipitates rinsed thrice with PBS, SDS-PAGE and western blotting

integrin β1 (from UniProt P05556 21-798) (receptor)
binding: binds
